From PubChem BioAssay AID1347076 (National Center for Advancing Translational Sciences (NCATS), 2019)
The campaign covered roughly 400,000 compounds. About 13,000 (3.2%) were called active. Inconclusive results, whose numbers are uncertain, are shown with a selection of clear calls. Calls come from the whole dose curve; as a rule, active = well fitted cell-killing curve with a large enough effect; inconclusive = small, poorly fitted or top-dose-only effect, or effect the other way; inactive = flat fitted curve, though single readings scatter. Potencies beside an inconclusive call are fits to weak or partial responses and may not hold up.

Experiment: qHTS assay for MDR1-selective chemotherapeutics: Primary screen using the drug-selected MDR subline cells KB-V1; note: nearly all actives have a fitted effect of over 60% in size
Conditions: KB-V1 MDR cells viability, CellTiter-Glo, 72 h; activity change, negative = cytotoxicity: at 46.1 µM (top of the series)
In short: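 Drug-selected KB-V1 cells, grown in DMEM lacking phenol red with 10% FBS, receive compound titrations; after three days at 37 degrees C, surviving cell ATP is quantified by CellTiter-Glo luminescence and responses normalized and curve-fitted.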
% is set by controls: 0 for no effect and ±100 for the full control effect; potency is the fitted concentration of half-maximal effect.

Q: With `CCc1nc2ccc(C(=O)N(C)CCCN(C)C)cn2c1N(CC)CCOC` as the compound, how does the “activity change, negative = cytotoxicity” value read?
A: inactive: 4.89%

Q: With `Cc1cccc(NC(=O)C(=O)NCC(c2ccc3c(c2)OCO3)N2CCN(c3ccccc3)CC2)c1` (centres undefined) as the compound, how does the “activity change, negative = cytotoxicity” value read?
A: inactive: 12.4%

Q: Which “activity change, negative = cytotoxicity” value does the source give for `Cc1cc(C)cc(SCc2noc(C(=O)NCCN(C)C)c2C(=O)NCCN(C)C)c1` here?
A: inactive: 0%

Q: With `CC(C)OCCCNCC(O)c1ccccc1` (centres undefined) as the compound, how does the Potency read?
A: inconclusive: 23.1 µM [cytotoxic, partial curve, poor fit]

Q: For `Cc1ccc(CSc2nnc(-c3ccco3)o2)cc1`, which Potency is on record?
A: inconclusive: 32.6 µM [rising, single point]

Q: With `COC(=O)c1ccccc1NC(=O)c1nc(-c2ccc(Cl)cc2)n2c1CCCCC2` as the compound, how does the Potency read?
A: inconclusive: 29.1 µM [rising, partial curve, poor fit]

Q: For `COC(=O)c1ccc(NC(=O)CSc2nnc3c4ccccc4n(C(C)C)c3n2)cc1`, which Potency is on record?
A: inconclusive: 18.4 µM [cytotoxic, partial curve]

Q: For `COCCn1c(-c2ccc(OC(F)(F)C(F)C(F)(F)F)cc2)nc2c1c(=O)[nH]c(=O)n2CC(C)C` (centres undefined), which Potency is on record?
A: inconclusive: 18.4 µM [cytotoxic, single point]

Q: With `COc1cc2[nH]c(=S)nc(NC3CCCCCC3)c2cc1OC` as the compound, how does the “activity change, negative = cytotoxicity” value read?
A: inactive: 2.88%

Q: Which Potency does the source give for `CC(=O)Nc1ccc(OCC(O)Cn2c(CO)nc3ccccc32)cc1` (centres undefined) here?
A: inconclusive: 23.1 µM [rising, single point]

Q: Which “activity change, negative = cytotoxicity” value does the source give for `COc1cccc(C(=O)NOCc2ccccc2)c1OC` here?
A: inactive: 0%

Q: With `Cc1ccc(-n2ncc3c(N4CCN(c5ccccc5)CC4)ncnc32)c(C)c1` as the compound, how does the Potency read?
A: active: 2.31 µM

Q: Which “activity change, negative = cytotoxicity” value does the source give for `COc1cccc(Cc2nc3ccccc3nc2SCC(=O)N2CCCc3ccccc32)c1` here?
A: inactive: 2.23%

Q: Which Potency does the source give for `Cc1ccccc1-c1cc(-c2ccccc2O)n[nH]1` here?
A: active: 18.4 µM

Q: Which Potency does the source give for `Cc1cc(=O)oc(C)c1C(=O)NCCC1=CCCCC1` here?
A: inconclusive: 29.1 µM [cytotoxic, single point]

Q: With `O=C(NC(=S)N1CCN(c2ccccn2)CC1)c1ccccc1` as the compound, how does the Potency read?
A: inconclusive: 29.1 µM [cytotoxic, single point]

Q: With `Cc1c(C(=O)Nc2nnc(C(F)(F)F)s2)oc2ccccc12` as the compound, how does the Potency read?
A: active: 18.4 µM

Q: With `COc1cc2c3c(c1)C(C)=CC(C)(C)N3C(=O)C2=O` as the compound, how does the “activity change, negative = cytotoxicity” value read?
A: inactive: -21%

Q: With `Cc1ccc(-c2nn(CC(=O)NCc3ccccc3)c3c2cnc2ccc(F)cc23)cc1C` as the compound, how does the “activity change, negative = cytotoxicity” value read?
A: inactive: 7.21%

Q: With `COc1ccc(-c2nc3ccccn3c2CN2CCN(c3ccccc3F)CC2)cc1` as the compound, how does the Potency read?
A: inconclusive: 8.2 µM [cytotoxic, partial curve, poor fit]

Q: For `CCN(Cc1ccc(C#CCCO)cc1)CC1CCCN(CCc2cccc(OC)c2)C1` (centres undefined), which “activity change, negative = cytotoxicity” value is on record?
A: inactive: -12.7%

Q: Which Potency does the source give for `CCOc1ccccc1NC(=O)C(=O)/C=C(\O)c1cc(OC)ccc1OC` here?
A: inconclusive: 20.6 µM [cytotoxic, single point]

Q: With `O=C(OCC(=O)N1CCOCC1)c1cnc(Cl)c(Cl)c1` as the compound, how does the Potency read?
A: inconclusive: 25.9 µM [rising, single point]

Q: Which Potency does the source give for `CCOC(=O)c1[nH]c2ccc(OCC)cc2c1NC(=O)CN1CCN(c2ccccc2)CC1` here?
A: inconclusive: 5.8 µM [cytotoxic, partial curve]

Q: Which Potency does the source give for `Cc1cc(NCCCCCCCNc2cc(C)nc3cc([N+](=O)[O-])ccc23)c2ccc([N+](=O)[O-])cc2n1` here?
A: active: 20.6 µM

Q: With `CCCNC(=O)CN1C(=O)COc2ccc(S(=O)(=O)N3CCC(C)CC3)cc21` as the compound, how does the Potency read?
A: inconclusive: 16.4 µM [cytotoxic, single point]

Q: Which Potency does the source give for `COc1ccc(CN(C)C(=O)c2cc(S(=O)(=O)N3CCCCCC3)ccc2OC)cc1OC` here?
A: inconclusive: 23.1 µM [cytotoxic, single point]

Q: With `CC(C)(C)OC(=O)N1CCCC(C(=O)Nc2cccc(C(=O)NCCCCc3ccccc3)c2)C1` (centres undefined) as the compound, how does the Potency read?
A: inconclusive: 29.1 µM [cytotoxic, single point]

Q: For `CC(=Nc1ccc(C)c(C)c1)C1=C(O)CCC1=O`, which Potency is on record?
A: inconclusive: 18.4 µM [rising, single point]

Q: For `CCCCn1nnnc1C(c1ccccc1OC(F)(F)F)N1CCN(C/C=C/c2ccccc2)CC1` (centres undefined), which Potency is on record?
A: inconclusive: 20.6 µM [cytotoxic, single point]

Q: With `C=C1C(=O)C=C2CN(C(=O)c3ccccc3)[C@@](Cc3ccc(F)cc3)(C(=O)OC)[C@@H]12` as the compound, how does the Potency read?
A: active: 4.61 µM

Q: With `CC(C1CC1)N(Cc1ccccc1)C(=S)Nc1ccccc1Cl` (centres undefined) as the compound, how does the “activity change, negative = cytotoxicity” value read?
A: inactive: 1.08%

Q: With `COc1cc(OC)c(NC2=C(c3ccc(C(F)(F)F)cc3)C(=O)c3ccccc32)cc1Cl` as the compound, how does the “activity change, negative = cytotoxicity” value read?
A: inactive: -9.7%

Q: With `COc1cc(NC(=O)C(Cc2ccccc2)NS(=O)(=O)c2cccs2)cc(OC)c1` (centres undefined) as the compound, how does the activity change, negative = cytotoxicity read?
A: inconclusive: -4.48%

Q: For `CCSc1nnc(NC(=O)[C@@H](NC(=O)c2ccccc2F)C(C)C)s1`, which Potency is on record?
A: inconclusive: 23.1 µM [cytotoxic, single point]

Q: With `O=C(CS(=O)(=O)c1cccc2nsnc12)NCc1ccccc1` as the compound, how does the Potency read?
A: inconclusive: 29.1 µM [rising, single point]

Q: Which Potency does the source give for `O=C(CSc1ccc2nnc(-c3ccc(F)cc3)n2n1)NCc1ccco1` here?
A: inconclusive: 25.9 µM [cytotoxic, partial curve, poor fit]

Q: For `S=C(NCc1ccccc1)N1CCN(c2cccc(Cl)c2)CC1`, which Potency is on record?
A: inconclusive: 14.6 µM [cytotoxic, partial curve]

Q: With `CCOc1ccccc1C(=O)NC(C(=O)Nc1cccnc1)C(C)C` (centres undefined) as the compound, how does the Potency read?
A: inconclusive: 29.1 µM [cytotoxic, single point]

Q: Which Potency does the source give for `CC(C)c1ccc(C(=O)NC(=S)NCc2cccnc2)cc1` here?
A: active: 2.91 µM

Q: With `OCCCn1c(-c2ccc(F)cc2)csc1=Nc1ccc(F)cc1` as the compound, how does the “activity change, negative = cytotoxicity” value read?
A: inactive: 1.16%

Q: Which Potency does the source give for `COC(=O)c1ccccc1NC(=O)c1cccc(COc2ccccc2Cl)c1` here?
A: inconclusive: 4.11 µM [cytotoxic, full curve, poor fit]

Q: Which Potency does the source give for `COc1ccc(NC(=O)C2CC(c3cc(OC)c(OC)c(OC)c3)=NO2)cc1OC` (centres undefined) here?
A: active: 13 µM

Q: Which Potency does the source give for `COc1ccc(N(Cc2ccccc2)C(=O)CSc2nnc(Cn3nnc4ccccc43)o2)cc1` here?
A: active: 8.2 µM

Q: For `NS(=O)(=O)c1ccc(CCNC(=O)COC(=O)CC(c2ccccc2)c2ccccc2)cc1`, which “activity change, negative = cytotoxicity” value is on record?
A: inactive: 23.6%

Q: With `CC(C)c1ccc(S(=O)(=O)N2CCC(C(=O)NCc3ccco3)CC2)cc1` as the compound, how does the Potency read?
A: inconclusive: 9.2 µM [cytotoxic, partial curve]

Q: With `O=C(OCc1cn([C@H]2C[C@H](c3ccc(Cl)cc3)N(Cc3cccs3)C[C@@H]2O)nn1)c1ccccc1` as the compound, how does the Potency read?
A: inconclusive: 16.4 µM [cytotoxic, single point]

Q: With `O=C(C1=C[C@H](c2ccc3c(c2)OCO3)C[C@H](OCc2ccc(CO)cc2)O1)N1CCN(Cc2ccc3c(c2)OCO3)CC1` as the compound, how does the “activity change, negative = cytotoxicity” value read?
A: inactive: -2.83%

Q: For `CCS(=O)(=O)c1nc(S(=O)(=O)c2ccc(Cl)cc2)c(N2CCC(C(N)=O)CC2)s1`, which Potency is on record?
A: inconclusive: 16.4 µM [rising, single point]

Q: Which Potency does the source give for `Cc1ccc(-n2cc(CNCCc3ncc(C)[nH]3)c(-c3ccc(F)cc3)n2)cc1` here?
A: inconclusive: 29.1 µM [cytotoxic, single point]

Q: With `CC(=O)c1ccc(NC(=O)C2CCN(S(=O)(=O)c3cccs3)CC2)cc1` as the compound, how does the “activity change, negative = cytotoxicity” value read?
A: inactive: -23%

Q: With `O=C(CN1CCOCC1)Nc1ncc(Cc2ccccc2Cl)s1` as the compound, how does the Potency read?
A: inconclusive: 29.1 µM [cytotoxic, single point]

Q: For `CCOC(=O)COc1ccc2c(c1)c(C(C)=O)c(C)n2-c1ccc(OC)cc1`, which “activity change, negative = cytotoxicity” value is on record?
A: inactive: -2.22%

Q: For `Cc1cc(C)c2c(CCl)cc(=O)oc2c1`, which Potency is on record?
A: inconclusive: 2.91 µM [cytotoxic, full curve, poor fit]

Q: For `CC(CCc1ccccc1)NC(=O)C1CCC1` (centres undefined), which Potency is on record?
A: inconclusive: 0.231 µM [rising, partial curve, poor fit]

Q: With `C#CCn1c(=O)n(-c2cccc(Cl)c2C)c(=O)c2c3c(sc21)CN(C(C)=O)CC3` as the compound, how does the Potency read?
A: inconclusive: 13 µM [cytotoxic, partial curve]

Q: For `CCN(CC)c1ccc(-c2c(C#N)c(N)nc(OC)c2C#N)cc1`, which Potency is on record?
A: inconclusive: 29.1 µM [cytotoxic, single point]

Q: Which Potency does the source give for `Cc1ccc(-c2noc(C3CCCN(S(=O)(=O)c4ccc(S(=O)(=O)N(C)C)cc4)C3)n2)o1` (centres undefined) here?
A: inconclusive: 5.17 µM [cytotoxic, partial curve, poor fit]

Q: Which Potency does the source give for `COc1ccc(C(=O)Cn2nnc(-c3ccccc3NC(=O)C3CCCCC3)n2)cc1` here?
A: inconclusive: 20.6 µM [cytotoxic, single point]

Q: With `Cn1c(SCc2ccccc2)nnc1-c1c[nH]c2ccccc12` as the compound, how does the “activity change, negative = cytotoxicity” value read?
A: inactive: -1.71%

Q: For `Cc1cc(S(=O)(=O)Nc2noc3ccccc23)ccc1F`, which Potency is on record?
A: inconclusive: 29.1 µM [rising, single point]

Q: With `COc1ccc(-n2nnnc2SC(C)C(=O)NCC(=O)Nc2ccc(F)c(F)c2F)cc1` (centres undefined) as the compound, how does the Potency read?
A: inconclusive: 20.6 µM [cytotoxic, single point]

Q: For `COc1ccc(/C=C/c2ccc3ccccc3n2)c(OC)c1`, which Potency is on record?
A: inconclusive: 18.4 µM [cytotoxic, single point]

Q: With `COC(=O)c1ccc(N2CN=C(c3ccc(C)cc3)NC2=S)cc1` as the compound, how does the “activity change, negative = cytotoxicity” value read?
A: inactive: 4.43%

Q: With `CCC(O)c1cc2c(cc1NC(=O)c1ccc(C)cc1)OCCO2` (centres undefined) as the compound, how does the Potency read?
A: inconclusive: 16.4 µM [cytotoxic, partial curve]

Q: For `C/C(CC(C)(C)C1CCCCC1)=N\NC(N)=S`, which Potency is on record?
A: inconclusive: 29.1 µM [cytotoxic, single point]

Q: Which Potency does the source give for `O=C1c2cccnc2C(=O)N1Cc1ccc(S(=O)(=O)N2CCN(c3ccccc3)CC2)cc1` here?
A: inconclusive: 29.1 µM [rising, single point]

Q: With `Cc1c(NC(=O)CCC2CCCCC2)cc(C(=O)N2CCOCC2)cc1[N+](=O)[O-]` as the compound, how does the Potency read?
A: inconclusive: 10.3 µM [cytotoxic, partial curve, poor fit]

Q: Which “activity change, negative = cytotoxicity” value does the source give for `CC(=O)c1ccc(-n2nnnc2SCC(=O)NC2CCCCC2)cc1` here?
A: inactive: -7.55%
